According to article PMC10879213:
Results are given in words; binding and its absence hold for the method and conditions named. In cells and extracts the contact can be indirect. Some entries that bind do so weakly or less than the wild type. Each block holds one binder with its values, some of them ahead of it.

The chains behind the UniProt entries cited, without tags or fusion partners.
UniProt P18850: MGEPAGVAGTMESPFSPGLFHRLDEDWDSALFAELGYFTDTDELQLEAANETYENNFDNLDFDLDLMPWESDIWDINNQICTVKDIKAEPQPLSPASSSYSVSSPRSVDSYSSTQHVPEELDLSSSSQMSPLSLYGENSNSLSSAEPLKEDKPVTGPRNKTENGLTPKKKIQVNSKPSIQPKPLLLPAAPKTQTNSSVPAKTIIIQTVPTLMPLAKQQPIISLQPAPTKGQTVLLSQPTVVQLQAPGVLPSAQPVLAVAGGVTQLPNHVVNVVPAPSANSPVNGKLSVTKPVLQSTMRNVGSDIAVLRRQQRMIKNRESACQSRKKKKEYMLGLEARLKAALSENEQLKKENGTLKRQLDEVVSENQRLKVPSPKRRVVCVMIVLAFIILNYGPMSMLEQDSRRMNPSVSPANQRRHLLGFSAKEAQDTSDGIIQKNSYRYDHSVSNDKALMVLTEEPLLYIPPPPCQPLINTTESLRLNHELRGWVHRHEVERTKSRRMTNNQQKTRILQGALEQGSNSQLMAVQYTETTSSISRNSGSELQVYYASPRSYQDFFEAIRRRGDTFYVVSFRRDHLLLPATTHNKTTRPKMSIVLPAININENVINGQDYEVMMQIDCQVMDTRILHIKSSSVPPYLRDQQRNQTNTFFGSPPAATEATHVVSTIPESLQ

Molecular target: activated transcription factor 6 (ATF6) (human (in lysate of human HCC cell lines)) (UniProt P18850)
Test: co-IP; CoIP using ATF6; cells lysed in 1% NP40, pre-blocked with 50% protein A/G agarose, primary antibody overnight at 4 °C, protein A/G agarose, washed with lysis solution, WB analysis; cell line not stated

- binding: binds
B1: NFYB subunit of the NF-Y complex (protein, UniProt P25208 1-207)
chain: MTMDGDSSTTDASQLGISADYIGGSHYVIQPHDDTEDSMNDHEDTNGSKESFREQDIYLPIANVARIMKNAIPQTGKIAKDAKECVQECVSEFISFITSEASERCHQEKRKTINGEDILFAMSTLGFDSYVEPLKLYLQKFREAMKGEKGIGGAVTATDGLSEELTEEAFTNQLPAGLITTDGQQQNVMVYTTSYQQISGVQQIQFS

- binding: binds
B2: NFYC subunit of the NF-Y complex (protein, UniProt Q13952 1-458)
chain: MSTEGGFGGTSSSDAQQSLQSFWPRVMEEIRNLTVKDFRVQELPLARIKKIMKLDEDVKMISAEAPVLFAKAAQIFITELTLRAWIHTEDNKRRTLQRNDIAMAITKFDQFDFLIDIVPRDELKPPKRQEEVRQSVTPAEPVQYYFTLAQQPTAVQVQGQQQGQQTTSSTTTIQPGQIIIAQPQQGQTTPVTMQVGEGQQVQIVQAQPQGQAQQAQSGTGQTMQVMQQIITNTGEIQQIPVQLNAGQLQYIRLAQPVSGTQVVQGQIQTLATNAQQGQRNASQGKPRRCLKETLQITQTEVQQGQQQFSQFTDGQRNSVQQARVSELTGEAEPREVKATGNSTPCTSSLPTTHPPSHRAGASCVCCSQPQQSSTSPPPSDALQWVVVEVSGTPNQLETHRELHAPLPGMTSLSPLHPSQQLYQIQQVTMPAGQDLAQPMFIQSANQPSDGQAPQVTGD
